Reference: the supplement of paper PMC10849652
This is one part of the list.

By UniProt entry, the sequences of proteins in these tests, tags left out. Where a name states a change or a piece, a line headed by the entry shows the natural chain unless it says otherwise.
UniProt Q01658: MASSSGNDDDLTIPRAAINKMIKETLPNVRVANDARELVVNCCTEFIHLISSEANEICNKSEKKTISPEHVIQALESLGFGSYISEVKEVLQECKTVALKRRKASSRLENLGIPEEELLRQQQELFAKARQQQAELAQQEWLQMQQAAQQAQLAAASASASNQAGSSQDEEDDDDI
UniProt Q96C19: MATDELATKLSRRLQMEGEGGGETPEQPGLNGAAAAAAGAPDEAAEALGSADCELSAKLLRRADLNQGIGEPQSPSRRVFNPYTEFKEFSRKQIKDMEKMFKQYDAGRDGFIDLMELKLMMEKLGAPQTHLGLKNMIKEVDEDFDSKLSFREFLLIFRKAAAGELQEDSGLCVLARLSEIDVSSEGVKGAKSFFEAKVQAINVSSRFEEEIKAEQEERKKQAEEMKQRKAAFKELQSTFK
UniProt P26641, whole entry, looked up: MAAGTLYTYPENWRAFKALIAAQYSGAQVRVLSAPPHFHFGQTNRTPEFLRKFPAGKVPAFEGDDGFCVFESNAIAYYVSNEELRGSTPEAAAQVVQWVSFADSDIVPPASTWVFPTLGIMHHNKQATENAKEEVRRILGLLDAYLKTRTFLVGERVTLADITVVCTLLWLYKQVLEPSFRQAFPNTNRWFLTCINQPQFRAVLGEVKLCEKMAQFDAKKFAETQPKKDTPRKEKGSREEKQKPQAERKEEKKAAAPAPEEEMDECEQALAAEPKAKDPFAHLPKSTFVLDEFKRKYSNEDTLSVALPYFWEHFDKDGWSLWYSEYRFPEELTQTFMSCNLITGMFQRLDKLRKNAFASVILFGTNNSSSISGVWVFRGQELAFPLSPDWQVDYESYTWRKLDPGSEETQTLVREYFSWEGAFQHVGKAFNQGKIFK
UniProt Q8WWZ3: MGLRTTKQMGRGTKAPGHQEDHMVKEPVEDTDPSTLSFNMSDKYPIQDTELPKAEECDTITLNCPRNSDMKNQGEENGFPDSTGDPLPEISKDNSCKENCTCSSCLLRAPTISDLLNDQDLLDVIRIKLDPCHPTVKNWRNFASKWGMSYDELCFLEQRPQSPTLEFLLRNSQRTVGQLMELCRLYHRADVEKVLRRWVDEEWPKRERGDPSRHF
UniProt P33316: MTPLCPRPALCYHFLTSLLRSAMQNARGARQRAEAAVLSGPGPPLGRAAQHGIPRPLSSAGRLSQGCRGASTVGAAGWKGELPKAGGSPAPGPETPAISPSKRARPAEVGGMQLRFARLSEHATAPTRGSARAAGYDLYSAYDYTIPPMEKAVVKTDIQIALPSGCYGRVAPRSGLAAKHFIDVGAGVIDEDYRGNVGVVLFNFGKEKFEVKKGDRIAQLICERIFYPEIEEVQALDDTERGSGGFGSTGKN
UniProt Q9C005, whole entry, looked up: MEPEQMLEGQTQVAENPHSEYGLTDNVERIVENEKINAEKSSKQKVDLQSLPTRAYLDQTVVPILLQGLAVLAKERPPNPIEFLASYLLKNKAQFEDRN
UniProt P51452: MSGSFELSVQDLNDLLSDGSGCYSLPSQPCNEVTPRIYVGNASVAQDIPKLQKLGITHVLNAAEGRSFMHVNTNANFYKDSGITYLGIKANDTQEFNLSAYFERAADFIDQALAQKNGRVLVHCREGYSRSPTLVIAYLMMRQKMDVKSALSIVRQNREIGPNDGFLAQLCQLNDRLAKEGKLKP
UniProt Q9H2P9: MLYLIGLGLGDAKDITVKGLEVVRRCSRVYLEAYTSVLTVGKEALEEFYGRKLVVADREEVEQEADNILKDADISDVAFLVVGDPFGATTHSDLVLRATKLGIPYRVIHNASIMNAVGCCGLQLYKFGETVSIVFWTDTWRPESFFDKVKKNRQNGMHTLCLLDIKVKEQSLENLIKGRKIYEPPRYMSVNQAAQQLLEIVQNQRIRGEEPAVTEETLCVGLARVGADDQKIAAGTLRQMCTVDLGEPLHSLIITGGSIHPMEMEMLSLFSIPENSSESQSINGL
UniProt Q9H8V3: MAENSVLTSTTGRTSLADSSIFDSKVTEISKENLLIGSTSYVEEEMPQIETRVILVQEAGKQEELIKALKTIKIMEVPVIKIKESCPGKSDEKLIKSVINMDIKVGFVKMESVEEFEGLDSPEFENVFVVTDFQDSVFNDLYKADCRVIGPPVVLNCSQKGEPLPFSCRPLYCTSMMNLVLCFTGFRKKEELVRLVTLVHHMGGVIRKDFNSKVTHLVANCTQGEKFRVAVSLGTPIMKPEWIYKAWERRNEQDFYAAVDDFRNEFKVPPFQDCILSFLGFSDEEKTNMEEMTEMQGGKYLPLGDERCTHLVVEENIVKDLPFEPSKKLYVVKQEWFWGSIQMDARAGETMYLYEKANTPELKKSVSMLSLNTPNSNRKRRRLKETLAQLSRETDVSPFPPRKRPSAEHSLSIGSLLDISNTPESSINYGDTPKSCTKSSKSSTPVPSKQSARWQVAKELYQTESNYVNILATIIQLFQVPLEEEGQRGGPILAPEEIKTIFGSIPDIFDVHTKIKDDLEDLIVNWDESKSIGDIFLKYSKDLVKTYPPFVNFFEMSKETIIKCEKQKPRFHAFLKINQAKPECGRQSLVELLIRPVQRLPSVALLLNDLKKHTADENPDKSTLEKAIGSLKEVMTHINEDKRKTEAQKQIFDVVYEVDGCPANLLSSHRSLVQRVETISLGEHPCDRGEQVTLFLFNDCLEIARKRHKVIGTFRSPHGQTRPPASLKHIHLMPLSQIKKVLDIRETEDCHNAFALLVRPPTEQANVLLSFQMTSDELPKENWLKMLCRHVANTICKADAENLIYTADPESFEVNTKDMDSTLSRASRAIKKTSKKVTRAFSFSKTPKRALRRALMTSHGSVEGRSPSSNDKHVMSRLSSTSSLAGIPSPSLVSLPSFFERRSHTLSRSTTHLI
UniProt P47813, whole entry, looked up: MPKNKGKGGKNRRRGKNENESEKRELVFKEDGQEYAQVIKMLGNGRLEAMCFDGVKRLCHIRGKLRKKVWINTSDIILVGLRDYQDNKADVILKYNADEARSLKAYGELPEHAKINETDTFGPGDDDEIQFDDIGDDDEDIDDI
UniProt Q16254: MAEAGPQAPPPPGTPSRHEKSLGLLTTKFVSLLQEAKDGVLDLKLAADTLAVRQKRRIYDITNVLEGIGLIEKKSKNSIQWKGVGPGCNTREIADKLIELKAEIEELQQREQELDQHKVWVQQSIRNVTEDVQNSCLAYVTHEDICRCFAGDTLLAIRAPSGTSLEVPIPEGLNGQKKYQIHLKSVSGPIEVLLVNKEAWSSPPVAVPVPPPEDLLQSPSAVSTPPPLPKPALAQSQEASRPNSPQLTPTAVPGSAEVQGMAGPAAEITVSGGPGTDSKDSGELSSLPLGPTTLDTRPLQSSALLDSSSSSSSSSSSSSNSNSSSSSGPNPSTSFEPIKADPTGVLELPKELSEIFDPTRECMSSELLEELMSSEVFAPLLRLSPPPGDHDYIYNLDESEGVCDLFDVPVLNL
UniProt Q5VTE0, whole entry, looked up: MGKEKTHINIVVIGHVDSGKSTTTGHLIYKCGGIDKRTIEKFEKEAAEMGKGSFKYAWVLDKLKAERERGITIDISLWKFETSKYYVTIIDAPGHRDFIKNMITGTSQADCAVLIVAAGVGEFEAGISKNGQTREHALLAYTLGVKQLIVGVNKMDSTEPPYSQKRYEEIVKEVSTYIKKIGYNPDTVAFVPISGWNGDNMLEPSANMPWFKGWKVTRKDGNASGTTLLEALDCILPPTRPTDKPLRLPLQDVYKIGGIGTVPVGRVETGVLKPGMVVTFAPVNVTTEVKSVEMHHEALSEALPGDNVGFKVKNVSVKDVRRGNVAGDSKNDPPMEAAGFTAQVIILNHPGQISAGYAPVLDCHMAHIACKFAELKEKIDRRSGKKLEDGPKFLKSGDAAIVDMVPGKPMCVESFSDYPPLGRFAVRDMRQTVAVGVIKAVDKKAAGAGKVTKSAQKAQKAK
UniProt P41567, whole entry, looked up: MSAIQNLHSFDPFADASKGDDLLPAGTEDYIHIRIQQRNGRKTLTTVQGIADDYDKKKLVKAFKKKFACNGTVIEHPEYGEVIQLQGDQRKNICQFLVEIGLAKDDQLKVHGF

What was measured:
Experiment in all cases: log2 fold change, soluble protein after heating vs DMSO (PISA); higher = thermal stabilisation; K562 lysate, 10 uM; active = over 0.2 and 3.5 SD of the protein, either way, in both replicates (recomputed)
nilotinib = compound: Cc1cn(-c2cc(NC(=O)c3ccc(C)c(Nc4nccc(-c5cccnc5)n4)c3)cc(C(F)(F)F)c2)cn1 [nilotinib]
How it was run: (§1)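 Pellets of K562 cells were dounce-homogenised in PBS pH 7.4 with 1 mM MgCl2, and the crude extract was held at 1 mg/mL protein for a 30 min treatment with 10 μM compound. Aliquots were heated for 3 min over 48°C-58°C and pooled before NP-40 was added to 0.5% at 4°C. The supernatant from 21,000xg for 90 min was quantified by TMTpro 16plex LC-MS/MS with channel sums equalised. Values are reported from duplicates as log-two fold change in thermal stability relative to solvent controls.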

[1] = compound: Cc1nc(Nc2n[nH]c3c2CN(C(=O)N[C@H](CN(C)C)c2ccccc2)C3(C)C)c2sccc2n1
How it was run: as §1

dasatinib = compound: Cc1nc(Nc2ncc(C(=O)Nc3c(C)cccc3Cl)s2)cc(N2CCN(CCO)CC2)n1 [dasatinib]
How it was run: as §1

[2] = compound: Cc1ncc(-c2ccnc(Nc3ccc(S(C)(=O)=O)cc3)n2)n1C(C)C
How it was run: as §1

[3] = compound: Cn1cc(-c2ccc3c(c2)CCN3C(=O)Cc2cccc(C(F)(F)F)c2)c2c(N)ncnc21
How it was run: as §1

quisinostat = compound: Cn1cc(CNCC2CCN(c3ncc(C(=O)NO)cn3)CC2)c2ccccc21 [quisinostat]
How it was run: as §1

tipifarnib = compound: Cn1cncc1[C@@](N)(c1ccc(Cl)cc1)c1ccc2c(c1)c(-c1cccc(Cl)c1)cc(=O)n2C [tipifarnib]
How it was run: as §1

[4] = compound: NC(=O)Nc1cc(-c2cccc(F)c2)sc1C(=O)N[C@H]1CCCNC1
How it was run: as §1

[5] = compound: NC(=O)c1cnc(N[C@@H]2CCCC[C@@H]2N)nc1Nc1cccc(-n2nccn2)c1
How it was run: as §1

[6] = compound: NC1(c2ccc(-c3nc4ccn5c(=O)[nH]nc5c4cc3-c3ccccc3)cc2)CCC1
How it was run: as §1

Target: DR1 (UniProt Q01658)
- log2 fold change (nilotinib): inactive: -0.01
- log2 fold change [1]: inactive: 0.018
- log2 fold change (dasatinib): inactive: 0.005
- log2 fold change [2]: inactive: -0.016
- log2 fold change [3]: inactive: -0.045
- log2 fold change (quisinostat): inactive: -0.034
- log2 fold change (tipifarnib): inactive: 0.005
- log2 fold change [4]: inactive: 0.026
- log2 fold change [5]: inactive: -0.023
- log2 fold change [6]: inactive: 0.027

Target: EFHD2 (UniProt Q96C19)
- log2 fold change (nilotinib): inactive: 0.011
- log2 fold change [1]: inactive: -0.014
- log2 fold change (dasatinib): inactive: 0.034
- log2 fold change [2]: inactive: 0.005
- log2 fold change [3]: inactive: -0.004
- log2 fold change (quisinostat): inactive: 0.014
- log2 fold change (tipifarnib): inactive: 0.004
- log2 fold change [4]: inactive: -0.025
- log2 fold change [5]: inactive: -0.021
- log2 fold change [6]: inactive: 0.004

Target: EEF1G isoform 2 (UniProt P26641)
- log2 fold change (nilotinib): inactive: 0.011
- log2 fold change [1]: inactive: 0.004
- log2 fold change (dasatinib): inactive: 0.017
- log2 fold change [2]: inactive: -0.013
- log2 fold change [3]: inactive: 0.034
- log2 fold change (quisinostat): inactive: 0.025
- log2 fold change (tipifarnib): inactive: -0.002
- log2 fold change [4]: inactive: 0.004
- log2 fold change [5]: inactive: -0.007
- log2 fold change [6]: inactive: 0.001

Target: DPY19L1, A0A1B0GW05
- log2 fold change (nilotinib): inactive: 0.005
- log2 fold change [1]: inactive: -0.076
- log2 fold change (dasatinib): inactive: 0.001
- log2 fold change [2]: inactive: 0
- log2 fold change [3]: inactive: -0.017
- log2 fold change (quisinostat): inactive: -0.027
- log2 fold change (tipifarnib): inactive: -0.034
- log2 fold change [4]: inactive: 0.002
- log2 fold change [5]: inactive: 0.014
- log2 fold change [6]: inactive: 0.022

Target: EAF1 (UniProt Q96JC9)
- log2 fold change (nilotinib): inactive: -0.05
- log2 fold change [1]: inactive: 0.051
- log2 fold change (dasatinib): inactive: 0.037
- log2 fold change [2]: inactive: -0.048
- log2 fold change [3]: inactive: -0.01
- log2 fold change (quisinostat): inactive: -0.064
- log2 fold change (tipifarnib): inactive: 0.039
- log2 fold change [4]: inactive: 0.049
- log2 fold change [5]: inactive: 0.063
- log2 fold change [6]: inactive: 0.027

Target: EDARADD (UniProt Q8WWZ3)
- log2 fold change (nilotinib): inactive: 0.076
- log2 fold change [1]: inactive: -0.036
- log2 fold change (dasatinib): inactive: -0.004
- log2 fold change [2]: inactive: 0.008
- log2 fold change [3]: inactive: 0.023
- log2 fold change (quisinostat): inactive: 0.07
- log2 fold change (tipifarnib): inactive: 0.065
- log2 fold change [4]: inactive: -0.05
- log2 fold change [5]: inactive: -0.032
- log2 fold change [6]: inactive: 0.019

Target: DUT (UniProt P33316)
- log2 fold change (nilotinib): inactive: 0.028
- log2 fold change [1]: inactive: -0.034
- log2 fold change (dasatinib): inactive: 0.021
- log2 fold change [2]: inactive: -0.05
- log2 fold change [3]: inactive: -0.036
- log2 fold change (quisinostat): inactive: 0.046
- log2 fold change (tipifarnib): inactive: -0.01
- log2 fold change [4]: inactive: -0.013
- log2 fold change [5]: inactive: -0.006
- log2 fold change [6]: inactive: -0.005

Target: DPY30 (UniProt Q9C005)
- log2 fold change (nilotinib): inactive: 0.063
- log2 fold change [1]: inactive: -0.021
- log2 fold change (dasatinib): inactive: -0.005
- log2 fold change [2]: inactive: 0.298
- log2 fold change [3]: inactive: 0.002
- log2 fold change (quisinostat): inactive: -0.156
- log2 fold change (tipifarnib): inactive: -0.134
- log2 fold change [4]: inactive: -0.051
- log2 fold change [5]: inactive: -0.032
- log2 fold change [6]: inactive: -0.037

Target: DUSP3 (UniProt P51452)
- log2 fold change (nilotinib): inactive: 0.033
- log2 fold change [1]: inactive: -0.035
- log2 fold change (dasatinib): inactive: -0.06
- log2 fold change [2]: inactive: 0.038
- log2 fold change [3]: inactive: 0.011
- log2 fold change (quisinostat): inactive: -0.02
- log2 fold change (tipifarnib): inactive: 0.037
- log2 fold change [4]: inactive: -0.021
- log2 fold change [5]: inactive: 0.028
- log2 fold change [6]: inactive: -0.007

Target: DPH5 isoform 5 (UniProt Q9H2P9)
- log2 fold change (nilotinib): inactive: -0.01
- log2 fold change [1]: inactive: 0.289
- log2 fold change (dasatinib): active: 0.418
- log2 fold change [2]: inactive: 0.009
- log2 fold change [3]: inactive: 0.062
- log2 fold change (quisinostat): inactive: 0.003
- log2 fold change (tipifarnib): inactive: 0.017
- log2 fold change [4]: inactive: -0.048
- log2 fold change [5]: inactive: -0.025
- log2 fold change [6]: active: 0.377

Target: ECT2 (UniProt Q9H8V3)
- log2 fold change (nilotinib): inactive: -0.035
- log2 fold change [1]: inactive: -0.053
- log2 fold change (dasatinib): inactive: 0.095
- log2 fold change [2]: inactive: -0.003
- log2 fold change [3]: inactive: -0.005
- log2 fold change (quisinostat): inactive: -0.096
- log2 fold change (tipifarnib): inactive: -0.041
- log2 fold change [4]: inactive: -0.021
- log2 fold change [5]: inactive: 0.07
- log2 fold change [6]: inactive: -0.076

Target: EIF1AX (UniProt P47813)
- log2 fold change (nilotinib): inactive: 0.041
- log2 fold change [1]: inactive: 0.103
- log2 fold change (dasatinib): inactive: 0.042
- log2 fold change [2]: inactive: 0.04
- log2 fold change [3]: inactive: -0.042
- log2 fold change (quisinostat): inactive: 0.103
- log2 fold change (tipifarnib): inactive: -0.042
- log2 fold change [4]: inactive: -0.064
- log2 fold change [5]: inactive: 0.004
- log2 fold change [6]: inactive: -0.005

Target: E2F4 (UniProt Q16254)
- log2 fold change (nilotinib): inactive: 0.001
- log2 fold change [1]: inactive: -0.003
- log2 fold change (dasatinib): inactive: -0.001
- log2 fold change [2]: inactive: -0.012
- log2 fold change [3]: inactive: 0.061
- log2 fold change (quisinostat): inactive: -0.082
- log2 fold change (tipifarnib): inactive: -0.013
- log2 fold change [4]: inactive: -0.028
- log2 fold change [5]: inactive: 0.011
- log2 fold change [6]: inactive: -0.016

Target: EEF1A1P5 (UniProt Q5VTE0)
- log2 fold change (nilotinib): inactive: -0.055
- log2 fold change [1]: inactive: 0.005
- log2 fold change (dasatinib): inactive: -0.172
- log2 fold change [2]: inactive: -0.083
- log2 fold change [3]: inactive: 0.005
- log2 fold change (quisinostat): inactive: -0.054
- log2 fold change (tipifarnib): inactive: 0.008
- log2 fold change [4]: inactive: 0.016
- log2 fold change [5]: inactive: 0.006
- log2 fold change [6]: inactive: -0.013

Target: EIF1 (UniProt P41567)
- log2 fold change (nilotinib): inactive: 0.126
- log2 fold change [1]: inactive: 0.084
- log2 fold change (dasatinib): inactive: 0.001
- log2 fold change [2]: inactive: 0.142
- log2 fold change [3]: inactive: -0.03
- log2 fold change (quisinostat): inactive: 0.133
- log2 fold change (tipifarnib): inactive: 0
- log2 fold change [4]: inactive: -0.018
- log2 fold change [5]: inactive: -0.076
- log2 fold change [6]: inactive: -0.032
